These results are taken from the supplement of paper PMC12067093, “Discovery and optimisation of a covalent ligand for TRIM25 and its application to targeted protein ubiquitination” (Chemical Science, 2025).

Sequences of proteins named here, by UniProt entry; tags and fusion partners are left off. A change or cut given only in a name is not applied to a line headed by its entry.
UniProt Q9H2P0: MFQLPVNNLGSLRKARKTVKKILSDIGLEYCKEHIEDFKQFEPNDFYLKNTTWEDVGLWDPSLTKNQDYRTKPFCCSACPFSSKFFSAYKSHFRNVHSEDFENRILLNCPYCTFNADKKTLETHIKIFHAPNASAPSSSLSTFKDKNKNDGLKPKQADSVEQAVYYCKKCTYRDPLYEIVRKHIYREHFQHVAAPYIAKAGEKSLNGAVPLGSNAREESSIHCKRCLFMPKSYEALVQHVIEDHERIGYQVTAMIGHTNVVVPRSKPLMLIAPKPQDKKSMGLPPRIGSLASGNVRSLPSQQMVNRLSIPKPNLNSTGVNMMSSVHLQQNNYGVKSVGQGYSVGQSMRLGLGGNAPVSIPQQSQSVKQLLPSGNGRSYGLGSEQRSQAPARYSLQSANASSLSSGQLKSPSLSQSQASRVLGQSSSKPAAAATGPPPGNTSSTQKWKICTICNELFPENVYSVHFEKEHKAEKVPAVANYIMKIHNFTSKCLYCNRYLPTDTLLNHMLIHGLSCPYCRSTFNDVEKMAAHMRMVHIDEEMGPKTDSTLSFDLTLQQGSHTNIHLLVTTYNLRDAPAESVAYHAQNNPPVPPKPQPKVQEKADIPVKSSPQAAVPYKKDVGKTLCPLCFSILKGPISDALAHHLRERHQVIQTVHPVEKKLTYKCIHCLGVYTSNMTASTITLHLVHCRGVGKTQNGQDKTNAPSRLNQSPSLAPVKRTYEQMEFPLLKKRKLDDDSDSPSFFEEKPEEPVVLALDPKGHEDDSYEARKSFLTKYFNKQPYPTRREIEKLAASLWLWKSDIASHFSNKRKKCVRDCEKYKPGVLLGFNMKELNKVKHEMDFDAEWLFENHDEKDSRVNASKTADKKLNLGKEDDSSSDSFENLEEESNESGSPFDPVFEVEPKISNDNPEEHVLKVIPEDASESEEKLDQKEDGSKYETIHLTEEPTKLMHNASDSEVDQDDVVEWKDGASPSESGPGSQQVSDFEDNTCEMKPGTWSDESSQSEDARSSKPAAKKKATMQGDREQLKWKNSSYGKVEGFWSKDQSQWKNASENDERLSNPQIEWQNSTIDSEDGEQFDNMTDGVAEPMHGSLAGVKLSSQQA
UniProt Q13444: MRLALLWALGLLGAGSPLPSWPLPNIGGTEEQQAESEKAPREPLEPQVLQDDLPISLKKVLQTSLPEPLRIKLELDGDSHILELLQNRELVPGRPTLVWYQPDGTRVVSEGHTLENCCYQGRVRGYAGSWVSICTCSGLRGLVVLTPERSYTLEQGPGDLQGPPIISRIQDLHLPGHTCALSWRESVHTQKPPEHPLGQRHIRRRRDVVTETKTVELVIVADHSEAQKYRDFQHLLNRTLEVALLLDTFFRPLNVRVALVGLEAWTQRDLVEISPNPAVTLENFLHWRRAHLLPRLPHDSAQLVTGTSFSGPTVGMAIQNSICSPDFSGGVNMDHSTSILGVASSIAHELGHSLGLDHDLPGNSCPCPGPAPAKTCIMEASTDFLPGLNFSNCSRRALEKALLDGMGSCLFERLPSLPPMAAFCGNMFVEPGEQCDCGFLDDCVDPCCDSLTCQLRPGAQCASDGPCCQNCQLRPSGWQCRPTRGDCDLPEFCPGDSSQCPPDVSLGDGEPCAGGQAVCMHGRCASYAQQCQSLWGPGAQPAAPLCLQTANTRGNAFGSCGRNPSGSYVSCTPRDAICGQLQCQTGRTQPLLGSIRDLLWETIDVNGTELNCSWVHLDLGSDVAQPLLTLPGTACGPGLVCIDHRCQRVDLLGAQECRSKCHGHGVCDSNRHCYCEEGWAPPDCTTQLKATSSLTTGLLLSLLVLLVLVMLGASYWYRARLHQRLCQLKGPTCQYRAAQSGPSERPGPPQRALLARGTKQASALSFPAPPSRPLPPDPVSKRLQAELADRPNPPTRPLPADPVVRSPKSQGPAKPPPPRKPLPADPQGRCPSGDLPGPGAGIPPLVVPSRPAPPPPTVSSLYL
UniProt Q9BSE5: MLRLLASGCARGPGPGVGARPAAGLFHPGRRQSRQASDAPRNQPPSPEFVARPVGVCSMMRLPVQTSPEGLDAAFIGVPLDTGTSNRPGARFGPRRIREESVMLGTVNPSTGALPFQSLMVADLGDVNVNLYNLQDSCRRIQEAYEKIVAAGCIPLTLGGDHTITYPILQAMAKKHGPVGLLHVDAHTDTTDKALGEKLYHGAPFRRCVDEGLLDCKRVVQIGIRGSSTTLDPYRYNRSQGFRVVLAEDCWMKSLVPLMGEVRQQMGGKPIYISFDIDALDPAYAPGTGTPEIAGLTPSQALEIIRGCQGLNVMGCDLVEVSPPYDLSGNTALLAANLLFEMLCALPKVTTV
UniProt O60488: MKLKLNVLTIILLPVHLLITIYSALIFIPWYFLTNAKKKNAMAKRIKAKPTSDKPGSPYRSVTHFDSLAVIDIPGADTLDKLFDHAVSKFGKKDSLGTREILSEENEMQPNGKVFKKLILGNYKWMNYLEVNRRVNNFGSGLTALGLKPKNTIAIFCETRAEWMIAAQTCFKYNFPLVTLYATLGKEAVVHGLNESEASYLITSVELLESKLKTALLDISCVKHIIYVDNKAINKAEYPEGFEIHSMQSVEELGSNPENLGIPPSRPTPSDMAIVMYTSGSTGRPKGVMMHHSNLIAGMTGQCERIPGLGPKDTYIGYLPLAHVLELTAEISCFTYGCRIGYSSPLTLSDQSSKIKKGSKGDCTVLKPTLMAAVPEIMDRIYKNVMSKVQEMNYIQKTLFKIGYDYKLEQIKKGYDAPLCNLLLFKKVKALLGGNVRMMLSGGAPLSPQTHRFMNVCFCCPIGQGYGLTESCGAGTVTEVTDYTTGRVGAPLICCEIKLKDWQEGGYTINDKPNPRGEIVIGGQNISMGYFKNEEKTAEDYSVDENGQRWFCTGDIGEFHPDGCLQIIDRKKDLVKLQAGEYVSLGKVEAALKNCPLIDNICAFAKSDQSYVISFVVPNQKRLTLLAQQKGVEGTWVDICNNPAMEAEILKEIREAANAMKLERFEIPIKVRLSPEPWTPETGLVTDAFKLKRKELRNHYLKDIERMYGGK
UniProt O43707, whole entry, looked up: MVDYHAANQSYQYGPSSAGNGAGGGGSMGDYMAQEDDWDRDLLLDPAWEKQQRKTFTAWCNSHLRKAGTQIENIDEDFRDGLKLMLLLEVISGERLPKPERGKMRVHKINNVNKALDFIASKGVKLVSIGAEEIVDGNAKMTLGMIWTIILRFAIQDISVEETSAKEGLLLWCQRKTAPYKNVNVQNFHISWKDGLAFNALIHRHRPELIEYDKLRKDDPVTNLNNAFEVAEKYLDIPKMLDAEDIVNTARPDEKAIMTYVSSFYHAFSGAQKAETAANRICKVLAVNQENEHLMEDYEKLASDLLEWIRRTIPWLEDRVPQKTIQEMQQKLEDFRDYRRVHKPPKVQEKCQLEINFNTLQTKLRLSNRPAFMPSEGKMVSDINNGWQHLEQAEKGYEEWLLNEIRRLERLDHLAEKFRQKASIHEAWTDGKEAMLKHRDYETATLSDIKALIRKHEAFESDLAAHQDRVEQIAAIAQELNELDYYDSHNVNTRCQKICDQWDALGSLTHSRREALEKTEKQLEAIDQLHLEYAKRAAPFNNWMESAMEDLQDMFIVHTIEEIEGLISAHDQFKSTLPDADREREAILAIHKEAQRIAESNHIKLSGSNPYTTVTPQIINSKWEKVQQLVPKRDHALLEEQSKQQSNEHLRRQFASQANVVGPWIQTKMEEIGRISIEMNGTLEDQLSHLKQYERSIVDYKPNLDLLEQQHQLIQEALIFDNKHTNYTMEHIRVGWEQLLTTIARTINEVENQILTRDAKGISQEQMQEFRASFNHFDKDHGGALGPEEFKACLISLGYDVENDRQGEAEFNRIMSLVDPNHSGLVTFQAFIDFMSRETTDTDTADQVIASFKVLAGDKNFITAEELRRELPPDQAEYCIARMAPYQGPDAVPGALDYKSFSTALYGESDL
UniProt Q4G176: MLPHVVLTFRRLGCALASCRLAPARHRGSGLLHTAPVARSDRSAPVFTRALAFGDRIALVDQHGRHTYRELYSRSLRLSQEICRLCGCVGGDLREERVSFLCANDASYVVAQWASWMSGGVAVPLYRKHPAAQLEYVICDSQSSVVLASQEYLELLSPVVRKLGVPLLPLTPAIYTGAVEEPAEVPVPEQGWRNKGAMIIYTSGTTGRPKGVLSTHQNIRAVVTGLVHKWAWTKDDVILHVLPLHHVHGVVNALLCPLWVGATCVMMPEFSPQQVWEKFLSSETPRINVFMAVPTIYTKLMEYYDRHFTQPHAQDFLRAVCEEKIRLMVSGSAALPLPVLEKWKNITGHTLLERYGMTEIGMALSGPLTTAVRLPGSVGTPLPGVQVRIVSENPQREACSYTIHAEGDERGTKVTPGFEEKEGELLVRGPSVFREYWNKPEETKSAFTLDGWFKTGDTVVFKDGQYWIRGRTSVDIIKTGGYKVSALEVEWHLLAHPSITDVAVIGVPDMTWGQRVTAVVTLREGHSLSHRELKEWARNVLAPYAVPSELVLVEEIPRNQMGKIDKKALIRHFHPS
UniProt P33121: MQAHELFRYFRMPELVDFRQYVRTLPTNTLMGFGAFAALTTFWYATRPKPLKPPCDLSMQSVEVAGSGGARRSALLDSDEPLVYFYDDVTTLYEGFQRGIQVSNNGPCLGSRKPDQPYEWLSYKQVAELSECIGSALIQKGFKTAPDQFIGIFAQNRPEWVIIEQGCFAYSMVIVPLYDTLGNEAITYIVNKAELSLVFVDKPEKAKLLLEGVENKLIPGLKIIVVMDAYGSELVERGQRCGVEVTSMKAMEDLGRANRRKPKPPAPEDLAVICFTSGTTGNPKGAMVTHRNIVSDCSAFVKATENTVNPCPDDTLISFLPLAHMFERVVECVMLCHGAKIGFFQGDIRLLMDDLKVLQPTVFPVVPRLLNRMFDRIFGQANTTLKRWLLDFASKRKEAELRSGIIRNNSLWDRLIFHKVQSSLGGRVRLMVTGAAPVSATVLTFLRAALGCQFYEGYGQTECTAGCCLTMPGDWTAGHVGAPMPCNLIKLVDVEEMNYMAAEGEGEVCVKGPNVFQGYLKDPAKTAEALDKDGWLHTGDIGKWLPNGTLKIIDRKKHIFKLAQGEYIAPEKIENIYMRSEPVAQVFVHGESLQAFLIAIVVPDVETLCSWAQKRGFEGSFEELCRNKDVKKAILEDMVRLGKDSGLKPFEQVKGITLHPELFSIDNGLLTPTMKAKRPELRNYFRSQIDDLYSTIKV
UniProt Q15067: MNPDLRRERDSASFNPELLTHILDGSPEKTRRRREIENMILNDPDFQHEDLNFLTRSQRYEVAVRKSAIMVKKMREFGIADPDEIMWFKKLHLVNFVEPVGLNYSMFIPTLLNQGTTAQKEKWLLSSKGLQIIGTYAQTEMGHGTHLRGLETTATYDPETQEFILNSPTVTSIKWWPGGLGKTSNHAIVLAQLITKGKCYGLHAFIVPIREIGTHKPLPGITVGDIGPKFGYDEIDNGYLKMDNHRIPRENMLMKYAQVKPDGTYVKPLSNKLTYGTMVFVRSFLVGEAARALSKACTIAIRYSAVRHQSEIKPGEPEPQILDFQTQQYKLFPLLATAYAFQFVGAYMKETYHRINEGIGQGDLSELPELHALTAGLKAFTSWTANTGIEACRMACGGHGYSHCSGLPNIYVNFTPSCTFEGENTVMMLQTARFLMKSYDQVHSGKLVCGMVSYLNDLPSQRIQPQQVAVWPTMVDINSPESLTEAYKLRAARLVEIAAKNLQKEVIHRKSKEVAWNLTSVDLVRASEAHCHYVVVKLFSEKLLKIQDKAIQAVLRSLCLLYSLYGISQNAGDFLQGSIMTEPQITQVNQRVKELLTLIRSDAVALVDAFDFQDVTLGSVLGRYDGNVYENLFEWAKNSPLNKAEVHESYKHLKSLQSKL
UniProt P11117: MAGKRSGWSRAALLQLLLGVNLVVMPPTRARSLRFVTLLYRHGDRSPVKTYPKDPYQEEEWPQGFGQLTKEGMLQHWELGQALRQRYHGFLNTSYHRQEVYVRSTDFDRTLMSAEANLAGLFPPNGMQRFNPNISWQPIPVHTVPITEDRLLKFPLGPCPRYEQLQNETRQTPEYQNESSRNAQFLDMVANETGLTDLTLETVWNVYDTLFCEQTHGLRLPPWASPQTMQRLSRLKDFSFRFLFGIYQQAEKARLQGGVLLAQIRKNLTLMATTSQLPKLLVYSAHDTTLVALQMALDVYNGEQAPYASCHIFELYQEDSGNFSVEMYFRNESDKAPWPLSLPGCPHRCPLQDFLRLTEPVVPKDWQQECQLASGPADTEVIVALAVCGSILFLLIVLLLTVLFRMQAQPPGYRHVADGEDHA

Compound in the assay: Cc1cc(ccc1-c1ccccc1)C(=O)N1CCCN(CC1)C(=O)CCl [compound 10]
Kind of assay: probe-labelled cysteine peptide fold change vs DMSO (competition) (log2 fold change); higher = less target engagement (more negative = stronger competition). Conditions: THP-1, incubation time: 4 h.

The list shows a part of the results.
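Further: competitive profiling in live THP-1 cells: cysteine peptides tagged with an iodoacetamide desthiobiotin (IA-DTB) probe, intensity after compound treatment relative to DMSO-treated cells.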

With “ADNP_Q9H2P0_514_YLPTDTLLNHMLIHGLSCPYCR (UniProt Q9H2P0)”, the “probe-labelled cysteine peptide fold change” value reads like this: (10 µM) 0.101; (50 µM) 0.393.
As to “ADAM15_Q13444_583_DAICGQLQCQTGR (UniProt Q13444)”, the “probe-labelled cysteine peptide fold change” value (10 µM) was determined as 0.0282 and the “probe-labelled cysteine peptide fold change” value (50 µM) is 0.308.
On to “ACTR3_P61158_12_LPACVVDCGTGYTK (UniProt P61158)”, for which the “probe-labelled cysteine peptide fold change” value is -0.12 (10 µM) and -0.184 (50 µM).
For “ADNP_Q9H2P0_624+627_TLCPLCFSILK (UniProt Q9H2P0)”, in that order: 0.0561 and -0.449.
Take “AGMAT_Q9BSE5_250_VVLAEDCWMK (UniProt Q9BSE5)”: the “probe-labelled cysteine peptide fold change” value by setting is: (10 µM) 0.0518; (50 µM) -0.197.
Take “ACSL4_O60488_494_VGAPLICCEIK (UniProt O60488)”: the “probe-labelled cysteine peptide fold change” value (10 µM) is -0.0012 and the “probe-labelled cysteine peptide fold change” value (50 µM) is -0.649.
For the target “ADK_P55263_140_AAEAHVDAHYYEQNEQPTGTCAACITGDNR (UniProt P55263)”, the “probe-labelled cysteine peptide fold change” value by setting is: (10 µM) -0.06; (50 µM) 0.248.
With “ACTN4_O43707_495_CQKICDQWDALGSLTHSRR (UniProt O43707)”, the “probe-labelled cysteine peptide fold change” value is -0.0414 (10 µM) and -0.476 (50 µM).
For the target “ACSF3_Q4G176_86_LCGCVGGDLREER (UniProt Q4G176)”, the “probe-labelled cysteine peptide fold change” value runs as follows: (10 µM) 0.0284; (50 µM) -0.148.
For the target “ACSL1_P33121_311_ATENTVNPCPDDTLISFLPLAHMFER (UniProt P33121)”, the “probe-labelled cysteine peptide fold change” value runs as follows: (10 µM) -0.0184; (50 µM) 0.148.
Take “ACOX1_Q15067_199_CYGLHAFIVPIR (UniProt Q15067)”: the “probe-labelled cysteine peptide fold change” value runs as follows: (10 µM) -0.306; (50 µM) -0.174.
Regarding “ACP2_P11117_159_FPLGPCPR (UniProt P11117)”, the “probe-labelled cysteine peptide fold change” value is -0.0318 (10 µM) and -0.0842 (50 µM).
For “ACTN4_O43707_879_ELPPDQAEYCIAR (UniProt O43707)”, in that order: 0.0241 and -0.0546.
In the case of “ACTR3_P61158_34_LGYAGNTEPQFIIPSCIAIK (UniProt P61158)”, the “probe-labelled cysteine peptide fold change” value is, setting by setting: (10 µM) -0.0452; (50 µM) 0.22.
